# In publication PMC5652794:
# Protein sequences, listed by entry. Tags and fused reporters are not part of them.
# UniProt Q9BYT3: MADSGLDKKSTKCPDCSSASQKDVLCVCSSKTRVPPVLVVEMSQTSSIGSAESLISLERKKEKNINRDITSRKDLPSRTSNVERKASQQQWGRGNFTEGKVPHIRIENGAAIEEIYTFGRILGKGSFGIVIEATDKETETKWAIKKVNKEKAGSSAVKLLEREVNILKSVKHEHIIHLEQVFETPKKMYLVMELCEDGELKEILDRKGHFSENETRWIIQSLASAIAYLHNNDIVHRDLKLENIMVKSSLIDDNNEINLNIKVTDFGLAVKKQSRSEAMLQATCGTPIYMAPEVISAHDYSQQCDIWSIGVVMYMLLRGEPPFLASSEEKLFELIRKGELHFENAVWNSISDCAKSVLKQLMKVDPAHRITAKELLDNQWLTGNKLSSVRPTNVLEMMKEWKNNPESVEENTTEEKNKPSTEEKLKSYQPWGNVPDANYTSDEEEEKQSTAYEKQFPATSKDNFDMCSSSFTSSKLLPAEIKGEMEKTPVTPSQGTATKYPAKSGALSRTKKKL
# UniProt Q16665: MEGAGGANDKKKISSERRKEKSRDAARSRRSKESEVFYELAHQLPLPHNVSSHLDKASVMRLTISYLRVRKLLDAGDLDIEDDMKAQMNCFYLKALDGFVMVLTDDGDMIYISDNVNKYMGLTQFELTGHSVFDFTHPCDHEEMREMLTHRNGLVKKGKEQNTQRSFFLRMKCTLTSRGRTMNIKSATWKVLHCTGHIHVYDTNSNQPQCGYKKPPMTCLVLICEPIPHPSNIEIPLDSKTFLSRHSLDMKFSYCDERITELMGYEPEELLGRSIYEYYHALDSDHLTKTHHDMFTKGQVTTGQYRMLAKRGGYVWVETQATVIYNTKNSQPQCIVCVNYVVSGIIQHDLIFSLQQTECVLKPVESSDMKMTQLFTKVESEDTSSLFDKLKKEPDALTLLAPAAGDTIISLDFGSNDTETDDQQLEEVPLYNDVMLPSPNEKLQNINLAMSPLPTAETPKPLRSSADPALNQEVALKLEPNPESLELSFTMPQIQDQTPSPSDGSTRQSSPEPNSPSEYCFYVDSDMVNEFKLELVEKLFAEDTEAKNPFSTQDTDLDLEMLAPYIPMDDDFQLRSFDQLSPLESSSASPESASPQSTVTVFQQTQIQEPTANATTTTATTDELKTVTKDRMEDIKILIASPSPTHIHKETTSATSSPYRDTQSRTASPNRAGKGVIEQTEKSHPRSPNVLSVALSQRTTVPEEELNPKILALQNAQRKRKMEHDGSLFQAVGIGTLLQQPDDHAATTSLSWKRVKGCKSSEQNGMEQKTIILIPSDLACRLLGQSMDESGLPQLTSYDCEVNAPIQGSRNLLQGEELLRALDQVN
# No constants are given. Whether binding was seen depends on the method and setting. Binding seen in cells or lysates may run through a third protein. Some results given as binding are weak or reduced against the parent protein; the word gives no strength.
# Molecular target: serine/threonine kinase STK33 (human (endogenous in HCT-116, MIA PaCa2, MDA-MB-231)) (UniProt Q9BYT3)
# Experiment: co-IP; endogenous STK33 immunoprecipitated (3 μl STK33 antibody, Protein G-Sepharose) from 1 mg whole cell extract (10 mM Tris-HCl, 5 mM EDTA, 50 mM NaCl, 50 mM NaF, 1% Triton X100) of HCT-116, MIA PaCa2 and MDA-MB-231 cells cultivated in low oxygen or normal atmosphere; western blot
substance,measurement,value
hypoxia-inducing factor 1α (HIF-1α) (from UniProt Q16665 1-826),binding,binds
